# Experimental data: the supplement of paper PMC8728848
# The list shows a part of the results.
# B1: Clec39 (Caenorhabditis elegans) (protein)
# chain: MTSFYDNSSSSSKPVPLKTSRAQKIQILIFDNWKLILYGAISTLILVLAIMFSTLFFALPAANCDENSEPTKYYTTNAEITTTITTTNQKTTSTASSHLTTISSSATQIYSESSSSSTSQSTFTQSPPEISTTTIAPSDFSCQHGFTLVNNKCWKLVTSNQARPDADKICNGYGGATLFSIKSEQDNRAMIHFVKGQDIDFLWSGLLCSAGEPISCIWDIENGSTANYSNFADGFPNIVYGNCVYFITSGDEAGQWGNEQCGQVMNFVCELPATFQGKDGCKNNYEKSCYLRFDLNLTVPQAQNFCLEKCANLVSIHSANEVRFIMTIYDFIGEILIGALAPAQDFIYWLDGTPANYNNLKFFYNSTCVHMTVAPGMQNVGKWFTRFCTETGKFLCKRSIKNSCT
# Assays:
# Experiment in all cases: glycan array binding signal (z-score within array); higher = stronger binding
# Settings in all cases: glycan notation: IUPAC condensed, linker removed
# GalNAc(b1-3)Gal = target: GalNAc(b1-3)Gal
# Outline: (§1)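 The binding signal is a Z-score computed within each array. Data were drawn from 3228 arrays in the Consortium for Functional Glycomics database, restricted to those with a known protein sequence. Scores were averaged over arrays of the same protein sequence at different concentrations or buffers, and over linkers, and negative values can be taken as non-binding.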
# [1] = target: GalNAc(b1-3)Gal(a1-4)Gal(b1-4)GlcNAc
# Outline: as §1
# [2] = target: GalNAc(b1-3)Gal(a1-4)Gal(b1-4)GlcNAc(b1-3)Gal(b1-4)Glc
# Outline: as §1
# [3] = target: GalNAc(b1-3)Gal(a1-6)Gal(b1-4)Glc
# Outline: as §1
# GalNAc(b1-3)GalNAc = target: GalNAc(b1-3)GalNAc
# Outline: as §1
# GalNAc(b1-3)GlcNAc = target: GalNAc(b1-3)GlcNAc
# Outline: as §1
# GalNAc(b1-4)Gal(b1-4)Glc = target: GalNAc(b1-4)Gal(b1-4)Glc
# Outline: as §1
# GalNAc(b1-4)GlcNAc = target: GalNAc(b1-4)GlcNAc
# Outline: as §1
# [4] = target: GalNAc(b1-4)GlcNAc(b1-2)Man
# Outline: as §1
# [5] = target: GalNAc(b1-4)GlcNAc(b1-2)Man(a1-3)[GalNAc(b1-4)GlcNAc(b1-2)Man(a1-6)]Man(b1-4)GlcNAc(b1-4)GlcNAc
# Outline: as §1
# [6] = target: GalNAc(b1-4)GlcNAc(b1-3)GalNAc(b1-4)GlcNAc
# Outline: as §1
# GalNAc(b1-4)GlcNAc6S = target: GalNAc(b1-4)GlcNAc6S
# Outline: as §1
# GalNAc(b1-6)GalNAc = target: GalNAc(b1-6)GalNAc
# Outline: as §1
# GalNAc3S(b1-4)GlcNAc = target: GalNAc3S(b1-4)GlcNAc
# Outline: as §1
# GalNAc3S(b1-4)GlcNAc3S = target: GalNAc3S(b1-4)GlcNAc3S
# Outline: as §1
# [7] = target: GalNAc3S(b1-4)[Fuc(a1-3)]GlcNAc
# Outline: as §1
# GalNAc4S6S(b1-4)GlcNAc = target: GalNAc4S6S(b1-4)GlcNAc
# Outline: as §1
# GalNAc6S(b1-4)GlcNAc = target: GalNAc6S(b1-4)GlcNAc
# Outline: as §1
# Glc(a1-4)Glc = target: Glc(a1-4)Glc
# Outline: as §1
# [8] = target: Glc(a1-4)Glc(a1-4)Glc(a1-4)Glc
# Outline: as §1
# Glc(a1-6)Glc(a1-6)Glc = target: Glc(a1-6)Glc(a1-6)Glc
# Outline: as §1
# [9] = target: Glc(a1-6)Glc(a1-6)Glc(a1-6)Glc
# Outline: as §1
# Glc(b1-4)Glc = target: Glc(b1-4)Glc
# Outline: as §1
# Glc(b1-6)Glc = target: Glc(b1-6)Glc
# Outline: as §1
# GlcA(b1-3)Gal = target: GlcA(b1-3)Gal
# Outline: as §1
# GlcA(b1-3)GlcNAc = target: GlcA(b1-3)GlcNAc
# Outline: as §1
# GlcA(b1-6)Gal = target: GlcA(b1-6)Gal
# Outline: as §1
# [10] = target: GlcA3S(b1-3)Gal(b1-4)GlcNAc(b1-2)Man
# Outline: as §1
# [11] = target: GlcA3S(b1-3)Gal(b1-4)GlcNAc(b1-3)Gal(b1-4)Glc
# Outline: as §1
# [12] = target: GlcNAc(a1-3)Gal(b1-4)GlcNAc
# Outline: as §1
# [13] = target: GlcNAc(a1-4)Gal(b1-3)GlcNAc
# Outline: as §1
# [14] = target: GlcNAc(a1-4)Gal(b1-4)GalNAc
# Outline: as §1
# [15] = target: GlcNAc(a1-4)Gal(b1-4)GlcNAc
# Outline: as §1
# [16] = target: GlcNAc(a1-4)Gal(b1-4)GlcNAc(b1-3)Gal(b1-4)Glc
# Outline: as §1
# [17] = target: GlcNAc(a1-4)Gal(b1-4)GlcNAc(b1-3)Gal(b1-4)GlcNAc
# Outline: as §1
# [18] = target: GlcNAc(a1-4)Gal(b1-4)GlcNAc(b1-3)Gal(b1-4)GlcNAc(b1-3)Gal(b1-4)GlcNAc
# Outline: as §1
# [19] = target: GlcNAc(a1-4)Gal(b1-4)GlcNAc(b1-3)Gal(b1-4)[Fuc(a1-3)]GlcNAc(b1-3)Gal(b1-4)[Fuc(a1-3)]GlcNAc
# Outline: as §1
# [20] = target: GlcNAc(a1-6)Gal(b1-4)GlcNAc
# Outline: as §1
binder,measurement,setting,value
B1,glycan array binding signal (z-score),GalNAc(b1-3)Gal,0.618
same,glycan array binding signal (z-score),[1],1.49
same,glycan array binding signal (z-score),[2],-0.359
same,glycan array binding signal (z-score),[3],-1.35
same,glycan array binding signal (z-score),GalNAc(b1-3)GalNAc,-0.16
same,glycan array binding signal (z-score),GalNAc(b1-3)GlcNAc,-0.927
same,glycan array binding signal (z-score),GalNAc(b1-4)Gal(b1-4)Glc,0.409
same,glycan array binding signal (z-score),GalNAc(b1-4)GlcNAc,0.285
same,glycan array binding signal (z-score),[4],-0.862
same,glycan array binding signal (z-score),[5],0.422
same,glycan array binding signal (z-score),[6],-0.798
same,glycan array binding signal (z-score),GalNAc(b1-4)GlcNAc6S,-0.307
same,glycan array binding signal (z-score),GalNAc(b1-6)GalNAc,-0.849
same,glycan array binding signal (z-score),GalNAc3S(b1-4)GlcNAc,-0.828
same,glycan array binding signal (z-score),GalNAc3S(b1-4)GlcNAc3S,0.629
same,glycan array binding signal (z-score),[7],1.07
same,glycan array binding signal (z-score),GalNAc4S6S(b1-4)GlcNAc,0.327
same,glycan array binding signal (z-score),GalNAc6S(b1-4)GlcNAc,-0.478
same,glycan array binding signal (z-score),Glc(a1-4)Glc,0.424
same,glycan array binding signal (z-score),[8],-0.369
same,glycan array binding signal (z-score),Glc(a1-6)Glc(a1-6)Glc,-0.01
same,glycan array binding signal (z-score),[9],0.296
same,glycan array binding signal (z-score),Glc(b1-4)Glc,-0.573
same,glycan array binding signal (z-score),Glc(b1-6)Glc,0.595
same,glycan array binding signal (z-score),GlcA(b1-3)Gal,0.927
same,glycan array binding signal (z-score),GlcA(b1-3)GlcNAc,-0.085
same,glycan array binding signal (z-score),GlcA(b1-6)Gal,0.019
same,glycan array binding signal (z-score),[10],-0.239
same,glycan array binding signal (z-score),[11],-0.756
same,glycan array binding signal (z-score),[12],0.354
same,glycan array binding signal (z-score),[13],0.627
same,glycan array binding signal (z-score),[14],-0.942
same,glycan array binding signal (z-score),[15],0.563
same,glycan array binding signal (z-score),[16],-0.064
same,glycan array binding signal (z-score),[17],-1.06
same,glycan array binding signal (z-score),[18],-0.47
same,glycan array binding signal (z-score),[19],3.59
same,glycan array binding signal (z-score),[20],-0.512

# Some of the entries above, reformatted.
binder | measurement | setting | value
B1 | glycan array binding signal (z-score) | [3] | -1.35
same | glycan array binding signal (z-score) | GalNAc(b1-3)GalNAc | -0.16
